These are yes or no findings as the source states them, for the method shown. For some of these results: In cells and extracts the contact can be indirect. Some binding calls cover weakened binding; strength is not graded here.

In paper PMC13316410 one finds binding data, which are given here for 3 substances.

The target in test [1] is TOE1 wildtype, HA-tagged (bait) and MYC-tagged (prey) copies overexpressed in HEK293T cells (human) (UniProt Q96GM8). The experiment in a line: co-IP; HEK293T cells co-transfected with HA-tagged bait TOE1 and MYC-tagged prey TOE1 (WT or F148Y); clarified lysate (50 mM HEPES pH 8.0, 5 mM MgCl2, 200 mM NaCl, 10% glycerol, 0.05% IGEPAL CA-630, 2 mM PMSF) on anti-HA agarose resin; blots with anti-MYC and anti-HA.

The target of test [2] is TOE1 F148Y, HA-tagged (bait) and MYC-tagged (prey) copies overexpressed in HEK293T cells (human) (UniProt Q96GM8). The description is as above.
In test [3] the target is His-TOE1 F148Y (PCH7-linked variant), recombinant from E. coli (human) (UniProt Q96GM8). Briefly: SEC; Superdex 200 Increase, 50 mM HEPES pH 8.0, 250 mM NaCl, 2% glycerol, 5 mM MgCl2, 1 mM DTT; size from the calibration of the column; recombinant TOE1 from E. coli; both purified. In general terms: Size exclusion chromatography separates by hydrodynamic size, large species first.

Regarding “TOE1 wildtype, HA-tagged (bait) and MYC-tagged (prey) copies overexpressed in HEK293T cells (from UniProt Q96GM8 1-510) (enzyme)”, the binding result in test [1] and in test [2] was “binds” each time.

For the substance “TOE1 F148Y, HA-tagged (bait) and MYC-tagged (prey) copies overexpressed in HEK293T cells (from UniProt Q96GM8 1-510) (enzyme)”, in test [1], the binding entry was “binds”.

For the substance “His-TOE1 F148Y (PCH7-linked variant), recombinant from E. coli (from UniProt Q96GM8 1-510) (enzyme)”, the binding result in test [3] was “no binding”.
